Source: PubChem BioAssay AID2685 (National Center for Advancing Translational Sciences (NCATS), 2010)
The list shows a part of the results. Shown are side measurements of this screen, not its main read-out; they come without a call. Compounds called inactive in the main read-out are mostly missing here. The note in brackets gives the kind of curve behind each potency; many fits are weak.

Experiment: qHTS Assay for Lipid Storage Modulators in Drosophila S3 Cells;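 on cell number change: cells counted by Cell Tracker Red CMTPX staining in the red channel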
Conditions: BODIPY lipid droplet fluorescence, 18-24 h; for cell number change: measured here: cell count max response, cells fed with added oleic acid
Summary of the method: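 Drosophila S3 cells got compounds at several concentrations plus oleic acid (400 uM solution). Laser-scanning cytometry with 488 nm excitation read lipid droplets at 500-530 nm and cells at 575-640 nm. Percent activity was relative to 20 uM Triacsin C.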

[1] = measured here: cell number channel AC50, cells fed with added oleic acid
[2] = measured here: lipid fluorescence (Fed channel) AC50, cells fed with added oleic acid

SMILES | cell number change [%] | AC50 [1] | AC50 [2]
C=CCn1c(Sc2ncc([N+](=O)[O-])s2)n[nH]c1=O | -72.7 | 3.26 µM [falling, full curve] | 4.61 µM [falling, full curve]
COc1cc([N+](=O)[O-])ccc1NC(=O)Cc1ccc(C)cc1 | 4.44 | 0.501 µM [rising, full curve, poor fit] | 0.794 µM [rising, full curve, poor fit]
CCC(=O)NCCCCCCNC(=O)CC | -33.4 | 5.8 µM [falling, full curve] | 3.66 µM [falling, full curve]
COc1cc2c(cc1OC)C(=S)NC1(CCCC1)C2 | – | – | 0.92 µM [rising, full curve, poor fit]
CN1C(=O)C2(OCC(COc3ccc(Cl)cc3)O2)c2ccccc21 (stereo not drawn) | -0.364 | – | –
COC(=O)CSc1ccc(S(=O)(=O)N2CCC(C)CC2)cc1[N+](=O)[O-] | -8.29 | – | 5.8 µM [rising, single point]
O=C(COC(=O)C1=COCCO1)NCc1ccc(Cl)cc1 | 57.3 | 6.51 µM [rising, full curve] | 2.59 µM [rising, full curve]
Cc1ccc(/C(N)=N/OC(=O)/C=C/c2ccccc2)cc1 | 162 | – | –
COC(=O)c1ccc2c(=O)n(CC3CCCO3)c(SCC(=O)Nc3ccccc3Cl)nc2c1 (stereo not drawn) | – | 1.46 µM [rising, partial curve] | 1.46 µM [rising, partial curve]
Cc1nn(C)c2ncc(C(=O)c3cc(F)ccc3O)cc12 | 5.88 | – | 0.184 µM [falling, full curve]
O=C(CCCCCn1c(=S)[nH]c2cc3c(cc2c1=O)OCO3)N1CCN(c2ccccc2)CC1 | -14.9 | – | –
COc1ccc([N+](=O)[O-])c(S(=O)(=O)c2ccccc2)n1 | -66.9 | 25.9 µM [falling, partial curve] | 20.6 µM [falling, partial curve]
O=C(CCNC(=O)c1ccc([N+](=O)[O-])cc1)Nc1ccccc1N1CCCCC1 | -7.47 | – | 6.51 µM [falling, partial curve]
CCc1ccccc1OCC(=O)OCC(=O)Nc1cc(C)on1 | 0.669 | – | 16.4 µM [falling, single point]
COC(=O)c1ccc(NC(=S)N2CCN(Cc3ccccc3OC)CC2)cc1 | 4 | – | –
O=C1C2CCCN2C(=S)N1c1cc(Cl)ccc1Cl (stereo not drawn) | -10.4 | – | 29.1 µM [rising, single point]
COc1ccc(-n2nnc3c(=O)n(Cc4cccc(C)c4)cnc32)cc1 | – | – | 0.13 µM [rising, full curve, poor fit]

Pulled by structure from above:
SMILES | cell number change [%] | AC50 [1] | AC50 [2]
CCc1ccccc1OCC(=O)OCC(=O)Nc1cc(C)on1 | 0.669 | – | 16.4 µM [falling, single point]
COc1ccc(-n2nnc3c(=O)n(Cc4cccc(C)c4)cnc32)cc1 | – | – | 0.13 µM [rising, full curve, poor fit]
